In PubChem BioAssay AID248 (DTP/NCI, 2004):
The list does not hold the whole screen: it gathers tests that were run many times, whatever their T/C, doses with no T/C, and many T/C values between a quarter and a half above the control. Other doses and runs of a compound stand elsewhere. T/C is the treated group as % of the vehicle group. Some doses have a count of surviving animals in place of a T/C: the source files T/C as zero there, which appears to mark a toxic dose or a test without result, not a measured value. Some survivor counts are full or nearly so, which does not show that the dose was tolerated: the source hardly ever lists a survival T/C far under the control, and the zero likely stands for such cases as well. Survivors were counted at the toxicity check, usually on the fifth day, unless a day is given; later deaths do not show. Schedule codes are those of the source, taken here to give the interval after Q, in days (D) or hours (H), and the number of doses after X. Some entries hold several experiments; the values are given in rising order. Some schedules carry Z or #; the key to these is not given. Where survival is the endpoint, the PubChem record calls one and a half times the control and up active, and a quarter to a half above the control has no call in these data; cut-offs in other NCI protocols can differ.

System: L1210 leukemia ip in BDF1 mice, survival T/C
Assay: NCI In Vivo Anticancer Drug Screen. Data for tumor model L1210 Leukemia (intraperitoneal) in B6D2F1 (BDF1) mice
Details: T/C endpoint: mean survival time, higher T/C = longer survival
[1] = dose: 20.0 mg/kg/injection, schedule: Q01DX Z (ip), vehicle: saline
[2] = dose: 400.0 mg/kg/injection, schedule: Q01DX001 (ip), vehicle: saline
[3] = dose: 400.0 mg/kg/injection, schedule: Q01DX009 (ip), vehicle: Klucel (hydroxypropylcellulose) (HPC)
[4] = dose: 100.0 mg/kg/injection, schedule: Q04DX003 (ip), vehicle: saline with Tween-80
[5] = dose: 200.0 mg/kg/injection, schedule: Q04DX003 (ip), vehicle: saline with Tween-80
[6] = dose: 400.0 mg/kg/injection, schedule: Q04DX003 (ip), vehicle: saline with Tween-80
[7] = dose: 100.0 mg/kg/injection, schedule: Q01DX009 (ip), vehicle: saline with Tween-80
[8] = dose: 200.0 mg/kg/injection, schedule: Q01DX001 (ip), vehicle: saline with Tween-80

CC(=O)NC1=C(N2CC2C)C(=O)C(NC(C)=O)=C(N2CC2C)C1=O (centres undefined)
survivor count (dose: 1.25 mg/kg/injection, schedule: Q01DX009 (ip), vehicle: saline): 5 of 6 | survivor count (dose: 2.5 mg/kg/injection, schedule: Q01DX009 (ip), vehicle: saline): 6 of 6 | T/C (dose: 2.5 mg/kg/injection, schedule: Q01DX Z (ip), vehicle: saline): 142 % of control | survivor count (dose: 5.0 mg/kg/injection, schedule: Q01DX009 (ip), vehicle: saline): 6 of 6 | survivor count (dose: 10.0 mg/kg/injection, schedule: Q01DX009 (ip), vehicle: saline): 6 of 6 | T/C (dose: 10.0 mg/kg/injection, schedule: Q01DX Z (ip), vehicle: saline): 136 % of control | survivor count (dose: 19.0 mg/kg/injection, schedule: Q01DX009 (ip), vehicle: saline): 3 of 6 and 5 of 6 | T/C [1]: 127 % of control | survivor count [1]: 6 of 6 | survivor count (dose: 35.0 mg/kg/injection, schedule: Q01DX009 (ip), vehicle: saline): 6 of 6 | survivor count (dose: 37.5 mg/kg/injection, schedule: Q01DX009 (ip), vehicle: saline): 2 of 6 | survivor count (dose: 38.0 mg/kg/injection, schedule: Q01DX009 (ip), vehicle: saline): 4 of 6 | survivor count (dose: 40.0 mg/kg/injection, schedule: Q01DX Z (ip), vehicle: other): 5 of 6 | survivor count (dose: 40.0 mg/kg/injection, schedule: Q01DX Z (ip), vehicle: saline): 3 of 6 and 6 of 6 | survivor count (dose: 60.0 mg/kg/injection, schedule: Q01DX Z (ip), vehicle: other): 6 of 6 | survivor count (dose: 75.0 mg/kg/injection, schedule: Q01DX009 (ip), vehicle: saline): 5 of 6 | survivor count (dose: 80.0 mg/kg/injection, schedule: Q01DX Z (ip), vehicle: saline): 4 of 6 | survivor count (dose: 90.0 mg/kg/injection, schedule: Q01DX Z (ip), vehicle: other): 3 of 6 | survivor count (dose: 135.0 mg/kg/injection, schedule: Q01DX Z (ip), vehicle: other): 0 of 6 | survivor count (dose: 150.0 mg/kg/injection, schedule: Q01DX009 (ip), vehicle: saline): 1 of 6 and 2 of 6 | survivor count (dose: 200.0 mg/kg/injection, schedule: Q01DX001 (ip), vehicle: saline): 1 of 6 | survivor count (dose: 300.0 mg/kg/injection, schedule: Q01DX001 (ip), vehicle: saline): 1 of 6 | survivor count (dose: 300.0 mg/kg/injection, schedule: Q01DX009 (ip), vehicle: saline): 0 of 6 | survivor count [2]: 0 of 6

Cc1nc(N)[nH]c(=O)c1CCCNC(=O)c1ccc(C(=O)CBr)cc1
survivor count (dose: 100.0 mg/kg/injection, schedule: Q01DX001 (ip), vehicle: Klucel (hydroxypropylcellulose) (HPC)): 6 of 6

O=C(Nc1ccc2c(c1)C(Br)c1ccccc1-2)C(F)(F)F (centres undefined)
survivor count [3]: 6 of 6

O=S1(=O)CCC2CCCCC2C1 (centres undefined)
survivor count [4]: 4 of 6 | survivor count [5]: 0 of 6 | survivor count [6]: 0 of 6

CC1=C(CCCO)/C(=N/Nc2ccc([N+](=O)[O-])cc2[N+](=O)[O-])CCC1
survivor count (dose: 50.0 mg/kg/injection, schedule: Q04DX002 (ip), vehicle: saline with Tween-80): 3 of 3 | survivor count (dose: 100.0 mg/kg/injection, schedule: Q04DX002 (ip), vehicle: saline with Tween-80): 3 of 3

COc1cc2cc(C)[nH]c2cc1OC
survivor count [2]: 0 of 4

COc1ccc(Cl)cc1NC(=O)Nc1cc(C)ccc1N=Nc1ccc(C)cc1
survivor count [7]: 3 of 3 | survivor count [4]: 6 of 6 | survivor count [8]: 6 of 6 | survivor count [5]: 6 of 6 | survivor count [6]: 6 of 6

CC(C)(N)CNCC(C)(C)N
survivor count [2]: 1 of 6

CCCCCCCCCCCC(c1ccccc1)[N+](C)(C)C (centres undefined)
survivor count (dose: 5.0 mg/kg/injection, schedule: Q01DX001 (ip), vehicle: saline): 0 of 4 | survivor count (dose: 8.0 mg/kg/injection, schedule: Q01DX009 (ip), vehicle: saline): 2 of 6 | survivor count (dose: 10.0 mg/kg/injection, schedule: Q01DX001 (ip), vehicle: saline): 1 of 4 | survivor count (dose: 16.0 mg/kg/injection, schedule: Q01DX009 (ip), vehicle: saline): 3 of 6 | survivor count (dose: 20.0 mg/kg/injection, schedule: Q01DX001 (ip), vehicle: saline): 1 of 4 | survivor count (dose: 40.0 mg/kg/injection, schedule: Q01DX001 (ip), vehicle: saline): 0 of 4 | survivor count (dose: 80.0 mg/kg/injection, schedule: Q01DX001 (ip), vehicle: saline): 0 of 4

CC1CC(C)NC(=S)N1 (centres undefined)
survivor count (dose: 400.0 mg/kg/injection, schedule: Q04DX002 (ip), vehicle: saline with Tween-80): 2 of 3

O=[N+]([O-])c1ccc(/C(=C/c2ccccc2)[n+]2ccccc2)cc1
survivor count (dose: 75.0 mg/kg/injection, schedule: Q01DX001 (ip), vehicle: acetone): 2 of 6 | survivor count (dose: 150.0 mg/kg/injection, schedule: Q01DX001 (ip), vehicle: acetone): 0 of 6 | survivor count (dose: 300.0 mg/kg/injection, schedule: Q01DX001 (ip), vehicle: acetone): 0 of 6

CCOC1c2ccccc2-c2ccccc2N1C(=O)c1ccccc1 (centres undefined)
survivor count [7]: 0 of 6 | survivor count [4]: 6 of 6 | survivor count (dose: 200.0 mg/kg/injection, schedule: Q01DX009 (ip), vehicle: saline with Tween-80): 6 of 6 | survivor count (dose: 400.0 mg/kg/injection, schedule: Q01DX009 (ip), vehicle: saline with Tween-80): 6 of 6

COc1cc(C(=O)NC(CCC(=O)O)C(=O)O)ccc1N(C)Cc1cnc2nc(N)nc(N)c2n1 (centres undefined)
T/C (dose: 12.5 mg/kg/injection, schedule: Q01DX009 (ip), vehicle: sodium bicarbonate): 145 % of control | T/C (dose: 50.0 mg/kg/injection, schedule: Q01DX009 (ip), vehicle: sodium bicarbonate): 140 % of control

CC1C(C(=O)c2ccc(-c3ccccc3)cc2)N1C1CCCCC1 (centres undefined)
survivor count [6]: 3 of 3

CC1CN1P(=O)(OCCCl)N1CC1C (centres undefined)
survivor count (dose: 320.0 mg/kg/injection, schedule: Q01DX Z (ip), vehicle: saline): 0 of 6

CC1CCCC(C)N1NC1=NCCO1 (centres undefined)
survivor count [5]: 0 of 6 | survivor count [6]: 0 of 6

c1ccc(CN2C3CCCC2CC(c2ccccc2)C3)cc1 (centres undefined)
survivor count (dose: 400.0 mg/kg/injection, schedule: Q04DX002 (ip), vehicle: Klucel (hydroxypropylcellulose) (HPC)): 0 of 3

CC(CO)CCC(O)C(C)C1CCC2C3CCC4CC(O)CCC4(C)C3CCC12C (centres undefined)
survivor count (dose: 25.0 mg/kg/injection, schedule: Q01DX001 (ip), vehicle: saline with Tween-80): 6 of 6 | survivor count (dose: 50.0 mg/kg/injection, schedule: Q01DX001 (ip), vehicle: saline with Tween-80): 6 of 6 | survivor count (dose: 100.0 mg/kg/injection, schedule: Q01DX001 (ip), vehicle: saline with Tween-80): 6 of 6 | survivor count [8]: 6 of 6

NC(=O)N/C=C1\CCCOC1=O
survivor count [6]: 2 of 6

CCCc1nc2c(c(=O)n(C)c(=O)n2C)n1C
survivor count (dose: 100.0 mg/kg/injection, schedule: Q01DX001 (ip), vehicle: saline): 4 of 4

Cc1ccc(Cl)cc1NC(=O)Nc1ccccc1
survivor count (dose: 6.0 mg/kg/injection, schedule: Q01DX009 (ip), vehicle: Klucel (hydroxypropylcellulose) (HPC)): 6 of 6 | survivor count (dose: 12.0 mg/kg/injection, schedule: Q01DX009 (ip), vehicle: Klucel (hydroxypropylcellulose) (HPC)): 6 of 6 | survivor count (dose: 12.5 mg/kg/injection, schedule: Q01DX009 (ip), vehicle: Klucel (hydroxypropylcellulose) (HPC)): 6 of 6 | survivor count (dose: 25.0 mg/kg/injection, schedule: Q01DX009 (ip), vehicle: Klucel (hydroxypropylcellulose) (HPC)): 6 of 6 | survivor count (dose: 50.0 mg/kg/injection, schedule: Q01DX009 (ip), vehicle: Klucel (hydroxypropylcellulose) (HPC)): 6 of 6 | survivor count (dose: 100.0 mg/kg/injection, schedule: Q01DX009 (ip), vehicle: Klucel (hydroxypropylcellulose) (HPC)): 6 of 6 | survivor count (dose: 200.0 mg/kg/injection, schedule: Q01DX009 (ip), vehicle: Klucel (hydroxypropylcellulose) (HPC)): 6 of 6 | survivor count [3]: 6 of 6
